Patent publication US20250281572A1, “COMPOSITIONS AND METHODS FOR TREATING AND PREVENTING METABOLIC DISORDERS” (The Johns Hopkins University, priority 2022, published 2025)
For part of these data: At least one peptide structure holds a part that was inferred or is arguable (an end, a ring closure or a residue). Some entries repeat one wording, which the source may state once for all of them. For part of these data: For at least one compound, name, drawing or mass did not settle the structure. No end group written: not given here.

Tests used:
Type in all cases: cell-based
[1] = tested on: human colon cancer Caco2 cells; assay: Growth of colon cancer Caco2 cells
primary hepatocytes = assay: Mitochondrial morphology by confocal microscopy in mouse primary hepatocytes; settings: for fragmentation of mitochondria: 50 μM, primary hepatocytes treated with 0.4 mM cAMP
[2] = tested on: human hepatoma HepG2 cells; assay: Growth of hepatoma HepG2 cells; settings: for decrease of tumor cell growth: 16 h; for suppression of tumor cell growth: 300 μM
[3] = tested on: MCF-7 breast cancer cells; assay: Viable MCF-7 breast cancer cells
[4] = tested on: human primary breast-cancer-DTCs; assay: Growth of human primary breast cancer dissociated tumor cells; settings: for decrease of growth of breast cancer-DTCs: 100 μM; for decrease of growth of breast cancer-DTCs / decrease of tumor cell growth: 16 h; for decrease of tumor cell growth: breast-cancer-DTCs; for growth of human primary breast-cancer-DTCs: 20 μm for 64 h
human primary HCC-DTCs = assay: Growth of human primary hepatocellular carcinoma dissociated tumor cells; settings: for decrease of tumor cell growth: 16 h, HCC-DTCs; for growth of human primary HCC-DTCs: 20 μm for 40 h
AMPKα1 = assay: AMPK-MFF signaling phosphorylation in mouse primary hepatocytes; settings: higher concentrations of insulin

Row | Molecule | viable cancer cell numbers ([1]; 300 μM) | mitochondrial fission (primary hepatocytes) | fragmentation of mitochondria (primary hepatocytes) | decrease of tumor cell growth ([2]; 200 μM) [%] | suppression of tumor cell growth [2] [%] | number of viable MCF-7 breast cancer cells [3] | viable cancer cell numbers ([1]; 100 μM) | mitochondria fragmentation, dependence on dose and time (primary hepatocytes) | decrease of tumor cell growth ([2]; 100 μM) [%] | decrease of growth of breast cancer-DTCs [4] [%] | decrease of tumor cell growth ([4]; 200 μM) [%] | decrease of tumor cell growth ([4]; 400 μM) [%] | growth of human primary breast-cancer-DTCs [4] | decrease of tumor cell growth (human primary HCC-DTCs; 100 μM) [%] | decrease of tumor cell growth (human primary HCC-DTCs; 200 μM) [%] | decrease of tumor cell growth (human primary HCC-DTCs; 300 μM) [%] | growth of human primary HCC-DTCs (human primary HCC-DTCs) | AMPKαT172 phosphorylation (AMPKα1) | insulin signaling and AMPKα1S496 phosphorylation (AMPKα1)
1 | YGRKKRRQRRRTPQRSGSISNYRSCQR [Pa496m] | significantly decreased | robustly trigger | effectively trigger | 34.5 | ~90 | could decrease |  |  |  |  |  |  |  |  |  |  |  |  | 
2 | YGRKKRRQRRRTPQRSGSVSNYRSCQR [Pa496h] | significantly decreased | robustly trigger | effectively trigger | 40 | ~90 | could decrease | significantly reduced | dose- and time-dependent manner | 10.7 | 14.7 | 30.4 | 63.5 | significantly reduced | 15.4 | 24.5 | 83.2 | significantly reduced |  | 
3 | O=c1cc(N2CCOCC2)oc2c(-c3ccccc3)cccc12 [LY294002, reference compound] |  |  |  |  |  |  |  |  |  |  |  |  |  |  |  |  |  | increased | inhibited
4 | YGRKKRRQRRRTPQRSCSAAGLHR [Pa2-491] | significantly decreased |  |  | 37.2 | ~90 | could decrease | significantly reduced |  | 12.5 | 9.3 | 31.3 | 57.8 | significantly reduced | 16.2 | 17.2 | 83.1 | significantly reduced |  | 
